Values after ≈ are worked out from the molar mass of the structure shown.
Tested on: Candida albicans
Test: Antimicrobial activity against Candida albicans ATCC 10231 by micro broth dilution method
Assay type: functional
In short: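 Endpoint is the minimal inhibitory concentration (MIC), reported as the mean of three independent experiments. Reference drugs were ciprofloxacin for the bacteria and amphotericin B for the fungi. E. coli ATCC 25922 and P. aeruginosa ATCC 27853 were tested in a panel with B. subtilis ATCC 6633 and S. aureus ATCC 25923.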

## C[C@@H]1[C@H](O)[C@@H](C)/C=C/C=C/C=C/C=C/C=C/C=C/C=C/[C@H](O[C@@H]2O[C@H](C)[C@@H](O)[C@H](N)[C@@H]2O)C[C@@H]2O[C@](O)(C[C@@H](O)C[C@@H](O)[C@H](O)CC[C@@H](O)C[C@@H](O)CC(=O)O[C@H]1C)C[C@H](O)[C@H]2C(=O)O [AMPHOTERICIN B]
  MIC: 0.5 µg/mL (≈ 0.541 µM)

From ChEMBL document CHEMBL3085692, “Violapyrones A-G, α-pyrone derivatives from Streptomyces violascens isolated from Hylobates hoolock feces” (J Nat Prod, 2013)
